PubChem BioAssay AID1259405, NCATS | 2018

Purpose: 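Mouse-designed siRNAs used to find CHO productivity engineering targets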 (primary screen)
Cells: Chinese hamster CHO-K1 ovary cells with stable secreted eGFP expression
Reagent: single siRNA against mouse genes, 0.8 pmol siRNA per well (2 µl of 400 nM stock)
Time to read-out: 3 days
Measured: 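Per-well intracellular GFP measured by laser scanning cytometry, plus viability from ATP luminescence, each relative to plate median of non-targeting control wells, in %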
Scale: GFP, % of control: higher = more GFP per well, higher productivity; viability (ATP), % of control: higher = more viable cells (more ATP)
Call rule: 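a knock-down is called active if GFP reaches 120% or more of non-targeting control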
Shown is a random part of about 50,000 deposited reagents. In the full data, about 4,000 (8%) were called active. 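Mouse siRNA library applied to hamster cells; one well for each siRNA.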 The numbers tell different reagents against one gene apart. Reagent sequences are not shown.

| GFP, % of control | viability (ATP), % of control | outcome | Gene | siRNA no. |
| --- | --- | --- | --- | --- |
| 62.1 | 73.5 | inactive | Tmod2 | 1 |
| 95.8 | 98 | inactive | Tmod2 | 2 |
| 60.6 | 71.4 | inactive | Tmod2 | 3 |
| 105 | 79.5 | inactive | Rpl22 | 1 |
| 21 | 20.8 | inactive | Rpl22 | 2 |
| 88.6 | 66.3 | inactive | Rpl22 | 3 |
| 71.4 | 63.4 | inactive | Glrx2 | 1 |
| 110 | 76.8 | inactive | Glrx2 | 2 |
| 85.2 | 87.4 | inactive | Glrx2 | 3 |
| 42.7 | 61.6 | inactive | Plxdc2 | 1 |
| 44.7 | 51.8 | inactive | Plxdc2 | 2 |
| 76.3 | 53.1 | inactive | Plxdc2 | 3 |
| 78 | 52.6 | inactive | Syngr4 | 1 |
| 107 | 90.3 | inactive | Syngr4 | 2 |
| 62 | 66.5 | inactive | Syngr4 | 3 |
| 146 | 70.5 | active | Atp7a | 1 |
| 106 | 86.9 | inactive | Atp7a | 2 |
| 51.1 | 65.5 | inactive | Atp7a | 3 |
| 83 | 87.4 | inactive | Mtcl1 | 1 |
| 109 | 103 | inactive | Mtcl1 | 2 |
| 94.1 | 82.5 | inactive | Mtcl1 | 3 |
| 108 | 92.2 | inactive | Or2d36 | 1 |
| 72.8 | 53.3 | inactive | Or2d36 | 2 |
| 75.3 | 43.4 | inactive | Or2d36 | 3 |
| 82.5 | 53.1 | inactive | Asb15 | 1 |
| 64.3 | 68.1 | inactive | Asb15 | 2 |
| 74.8 | 91 | inactive | Asb15 | 3 |
| 105 | 123 | inactive | Mmp10 | 1 |
| 38.7 | 58.2 | inactive | Mmp10 | 2 |
| 73.2 | 67.1 | inactive | Pdk1 | 1 |
| 90.6 | 74.5 | inactive | Klrb1b | 1 |
| 116 | 95.7 | inactive | Klrb1b | 2 |
| 75.5 | 77.5 | inactive | Klrb1b | 3 |
| 86.6 | 82.7 | inactive | Klrb1b | 4 |
| 80.2 | 82.9 | inactive | Klrb1b | 5 |
| 87.4 | 70.4 | inactive | Klrb1b | 6 |
| 107 | 79.9 | inactive | Tcn2 | 1 |
| 66.7 | 81.9 | inactive | Tcn2 | 2 |
| 24 | 69.2 | inactive | Tcn2 | 3 |

Ordered by “GFP, % of control” (highest first): some entries from above
| GFP, % of control | viability (ATP), % of control | outcome | Gene | siRNA no. |
| --- | --- | --- | --- | --- |
| 85.2 | 87.4 | inactive | Glrx2 | 3 |
| 78 | 52.6 | inactive | Syngr4 | 1 |
| 76.3 | 53.1 | inactive | Plxdc2 | 3 |
| 44.7 | 51.8 | inactive | Plxdc2 | 2 |
| 42.7 | 61.6 | inactive | Plxdc2 | 1 |

Additional results:
| GFP, % of control | viability (ATP), % of control | outcome | Gene | siRNA no. |
| --- | --- | --- | --- | --- |
| 94.4 | 85.9 | inactive | Kat8 | 1 |
| 101 | 43.5 | inactive | Kat8 | 2 |
| 100 | 75 | inactive | Kat8 | 3 |
| 72.7 | 93.8 | inactive | Eif2s2 | 1 |
| 75.9 | 50.5 | inactive | Eif2s2 | 2 |
| 71.1 | 86.7 | inactive | Eif2s2 | 3 |
| 87.4 | 95 | inactive | Slc17a2 | 1 |
| 48.2 | 60.9 | inactive | Slc17a2 | 2 |
| 92.7 | 69.7 | inactive | Slc17a2 | 3 |
| 70.9 | 29.1 | inactive | 4930583K01Rik | 1 |
| 69.3 | 62.8 | inactive | 4930583K01Rik | 2 |
| 93.2 | 83.6 | inactive | 4930583K01Rik | 3 |
| 110 | 102 | inactive | Thbs1 | 1 |
| 73.8 | 71.7 | inactive | Thbs1 | 2 |
| 71 | 79.9 | inactive | Pias2 | 1 |
| 107 | 117 | inactive | Pias2 | 2 |
| 110 | 101 | inactive | Pias2 | 3 |
| 47.8 | 51.9 | inactive | Timm8b | 1 |
| 126 | 74 | active | Timm8b | 2 |
| 108 | 105 | inactive | Timm8b | 3 |
| 85.9 | 69.1 | inactive | C1s2 | 1 |
| 60.6 | 69 | inactive | C1s2 | 2 |
| 65.1 | 74.2 | inactive | C1s2 | 3 |
| 33.8 | 33.3 | inactive | Zfp866 | 1 |
| 45.9 | 32.3 | inactive | Zfp866 | 2 |
| 110 | 93.4 | inactive | Zfp866 | 3 |
| 68.4 | 55.7 | inactive | Ddx55 | 1 |
| 72.2 | 77.5 | inactive | Ddx55 | 2 |
| 127 | 130 | active | Ddx55 | 3 |
| 65.3 | 54.6 | inactive | Or4p23 | 1 |
| 71.7 | 73.7 | inactive | Or4p23 | 2 |
| 52.8 | 78.7 | inactive | Or4p23 | 3 |
| 96.9 | 105 | inactive | Pigk | 1 |
| 105 | 156 | inactive | Pigk | 2 |
| 82.3 | 102 | inactive | Pigk | 3 |
| 58.8 | 64.9 | inactive | Tas2r129 | 1 |
| 140 | 95.1 | active | Tas2r129 | 2 |
| 61.2 | 86.2 | inactive | Tas2r129 | 3 |
| 95.9 | 76.8 | inactive | Stk16 | 1 |
| 54.4 | 51.3 | inactive | Stk16 | 2 |
| 83.2 | 55.5 | inactive | Stk16 | 3 |
| 93.8 | 75.6 | inactive | Pappa | 1 |
| 45.6 | 47.3 | inactive | Pappa | 2 |
| 62.2 | 45.1 | inactive | Pappa | 3 |
| 46.1 | 49.1 | inactive | Ano4 | 1 |
| 47.3 | 58.1 | inactive | Ano4 | 2 |
| 116 | 81.4 | inactive | Ano4 | 3 |
